## Results of single-concentration screens

Chains of the proteins cited; added tags and fusions are not shown. Residues count along the entry.
UniProt Q8IDJ8, 1-583: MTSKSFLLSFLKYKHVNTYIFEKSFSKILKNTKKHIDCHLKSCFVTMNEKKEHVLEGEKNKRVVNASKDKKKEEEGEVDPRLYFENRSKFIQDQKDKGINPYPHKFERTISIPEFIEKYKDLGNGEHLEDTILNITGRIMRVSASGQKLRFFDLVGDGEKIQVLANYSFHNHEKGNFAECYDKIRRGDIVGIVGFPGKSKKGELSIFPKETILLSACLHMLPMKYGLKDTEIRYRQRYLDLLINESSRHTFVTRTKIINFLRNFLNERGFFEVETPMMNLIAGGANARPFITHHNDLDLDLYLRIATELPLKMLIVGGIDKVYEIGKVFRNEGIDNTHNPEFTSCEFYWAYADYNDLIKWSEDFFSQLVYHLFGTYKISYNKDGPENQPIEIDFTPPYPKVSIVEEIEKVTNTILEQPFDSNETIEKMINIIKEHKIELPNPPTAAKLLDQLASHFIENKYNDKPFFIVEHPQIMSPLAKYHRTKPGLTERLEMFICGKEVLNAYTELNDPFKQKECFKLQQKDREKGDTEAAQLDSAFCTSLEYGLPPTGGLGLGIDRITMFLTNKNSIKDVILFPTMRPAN
UniProt Q4DA54, 1-478: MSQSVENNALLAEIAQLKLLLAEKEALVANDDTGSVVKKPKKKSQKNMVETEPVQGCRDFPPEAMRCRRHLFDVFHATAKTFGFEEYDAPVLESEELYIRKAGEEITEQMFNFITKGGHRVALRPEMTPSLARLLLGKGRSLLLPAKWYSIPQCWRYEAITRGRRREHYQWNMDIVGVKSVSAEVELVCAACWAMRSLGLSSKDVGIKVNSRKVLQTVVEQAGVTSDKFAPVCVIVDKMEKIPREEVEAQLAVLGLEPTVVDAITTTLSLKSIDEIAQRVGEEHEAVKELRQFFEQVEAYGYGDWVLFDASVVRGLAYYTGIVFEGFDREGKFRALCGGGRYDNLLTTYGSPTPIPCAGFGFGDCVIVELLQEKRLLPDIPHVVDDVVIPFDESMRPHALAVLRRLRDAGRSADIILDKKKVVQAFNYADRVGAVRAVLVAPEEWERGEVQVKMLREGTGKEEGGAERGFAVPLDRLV
UniProt I6X8D2, whole entry: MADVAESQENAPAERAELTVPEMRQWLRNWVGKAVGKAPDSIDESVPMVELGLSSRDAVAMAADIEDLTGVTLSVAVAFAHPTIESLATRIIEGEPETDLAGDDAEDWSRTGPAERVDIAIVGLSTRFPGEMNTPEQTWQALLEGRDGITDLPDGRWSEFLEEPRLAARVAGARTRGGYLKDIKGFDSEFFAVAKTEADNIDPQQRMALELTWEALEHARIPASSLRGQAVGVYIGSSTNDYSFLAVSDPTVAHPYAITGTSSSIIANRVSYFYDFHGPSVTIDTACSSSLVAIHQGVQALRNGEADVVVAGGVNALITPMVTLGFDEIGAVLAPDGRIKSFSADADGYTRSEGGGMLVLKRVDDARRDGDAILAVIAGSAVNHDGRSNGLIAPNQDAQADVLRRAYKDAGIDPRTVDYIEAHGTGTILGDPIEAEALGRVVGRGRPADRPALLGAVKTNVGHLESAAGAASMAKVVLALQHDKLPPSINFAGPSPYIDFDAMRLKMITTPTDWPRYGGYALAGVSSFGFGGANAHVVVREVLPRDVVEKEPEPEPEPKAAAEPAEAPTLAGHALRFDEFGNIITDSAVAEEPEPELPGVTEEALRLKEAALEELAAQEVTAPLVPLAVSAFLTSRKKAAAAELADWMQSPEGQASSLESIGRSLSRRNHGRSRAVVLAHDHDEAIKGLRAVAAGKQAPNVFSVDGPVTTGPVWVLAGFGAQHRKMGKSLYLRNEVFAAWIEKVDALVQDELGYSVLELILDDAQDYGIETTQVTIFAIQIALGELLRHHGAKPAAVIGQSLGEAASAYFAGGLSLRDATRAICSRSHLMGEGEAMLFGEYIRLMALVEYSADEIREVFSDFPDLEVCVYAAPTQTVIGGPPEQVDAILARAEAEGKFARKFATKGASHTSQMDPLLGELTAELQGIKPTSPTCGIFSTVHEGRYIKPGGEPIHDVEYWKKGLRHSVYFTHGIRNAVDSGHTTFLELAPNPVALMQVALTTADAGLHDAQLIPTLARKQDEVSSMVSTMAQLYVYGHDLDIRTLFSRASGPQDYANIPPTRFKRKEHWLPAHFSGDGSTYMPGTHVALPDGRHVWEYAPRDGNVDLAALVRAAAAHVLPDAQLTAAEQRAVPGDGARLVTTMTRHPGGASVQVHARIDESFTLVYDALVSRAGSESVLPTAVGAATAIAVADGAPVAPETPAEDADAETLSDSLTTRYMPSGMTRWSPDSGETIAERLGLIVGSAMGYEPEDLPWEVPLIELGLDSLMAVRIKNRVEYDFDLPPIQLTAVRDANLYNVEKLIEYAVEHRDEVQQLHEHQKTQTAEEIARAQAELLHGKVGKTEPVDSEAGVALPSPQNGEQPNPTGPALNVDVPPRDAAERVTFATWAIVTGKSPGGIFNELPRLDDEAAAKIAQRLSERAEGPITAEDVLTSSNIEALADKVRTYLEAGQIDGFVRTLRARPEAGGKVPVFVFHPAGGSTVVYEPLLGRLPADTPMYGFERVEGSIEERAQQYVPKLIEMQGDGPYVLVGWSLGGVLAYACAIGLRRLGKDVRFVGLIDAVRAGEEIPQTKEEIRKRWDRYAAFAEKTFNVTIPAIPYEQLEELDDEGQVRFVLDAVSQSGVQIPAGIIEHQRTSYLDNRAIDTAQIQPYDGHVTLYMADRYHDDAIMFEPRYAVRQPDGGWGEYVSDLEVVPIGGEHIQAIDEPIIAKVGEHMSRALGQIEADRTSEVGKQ

A: 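Enzyme assay of the cytosolic lysyl-tRNA synthetase in 384-well plates, read by luminescence. Target: Lysine-tRNA ligase, Plasmodium falciparum 3D7 (UniProt Q8IDJ8). Tested at 30 µM. Direction is inferred from only a few compounds that gave an IC50; most scored high, so higher reads as stronger inhibition. Of about 69,000 compounds tested this way, about 49 (0.071%) reached 50% or more in at least one test.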
B: 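Histidine-tRNA ligase, Trypanosoma cruzi CL Brener (UniProt Q4DA54). Enzyme assay of histidyl-tRNA synthetase; the read-out is not stated. Tested at 30 µM. Higher reads as stronger inhibition (inferred: compounds with an IC50 in retests scored well above the rest). About 69,000 compounds were tested under these conditions; 0.045% (about 31) showed 50% or more at least once.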
C: 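Enzyme assay of the thioesterase domain of polyketide synthase 13; the read-out is not stated. Target: Polyketide synthase Pks13, Mycobacterium tuberculosis (UniProt I6X8D2). Tested at 30 µM. Higher reads as stronger inhibition (inferred from which compounds were picked for retests). Size under these conditions: about 67,000 compounds, about 300 of them at 50% or above in at least one test.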

The filed quantity is “Percent Effect” (%).
How 0% and 100% were set is not recorded. Most values in the screen are low, and negative values occur.
This is an unselected part of the compounds tested.

O=C(c1cccs1)N1CC[C@H]2[C@@H]1CCC(=O)N2c1cccnc1 read A: -0.4278%; B: 8.163%; C: 17.36%.
CCOc1cccc(C(C(=O)O)N(C)Cc2cc(C)no2)c1 (stereo not shown) read A: 7.12%; B: 2.679%; C: 26.5%.
COc1cccc2c(=O)n(Cc3nc(C)cc(O)n3)cnc12 read A: -2.777%; B: 5.288%; C: 12.16%.
CC(C)OCc1ncn2c1CN(Cc1ccc(F)cc1)CCC2 read A: 7.812%; B: 7.182%; C: -26.46%.
CC(C)N(C)S(=O)(=O)N1CCN(Cc2ccco2)CC1 read A: 1.327%; B: 4.902%; C: -26.34%.
CC(=O)NCCCSC1CCN(c2ccccc2F)C1=O (stereo not shown) read A: 2.579%; B: -3.012%; C: 3.69%.
CN(C)C(=O)CO[C@H]1CN(Cc2nccs2)[C@@H]2COC[C@H]12 read A: 4.438%; B: 3.315%; C: -5.385%.
Cc1nc(NCc2coc(-c3ccccc3)n2)cc(C2CCNCC2)n1 read A: -8.637%; B: 5.288%; C: 11.21%.
Cc1ncc2c(n1)C1(CCN(C(=O)C(C)C)CC1)OCC2 read A: 1.486%; B: 5.303%; C: 2.064%.
CC(C)N(Cc1ccc(C#N)cc1)C(=O)Nc1ccncc1 read A: 1.002%; B: 4.202%; C: -0.7161%.
Cn1ncc2cnn(CC(O)COCc3ccccc3Cl)c2c1=O (stereo not shown) read A: 3.697%; B: 8.621%.
CCc1ccc(CN2CCc3c(nnn3C)C2COC)cc1 (stereo not shown) read A: 4.766%; B: 3.448%; C: -17.56%.
c1cnc(-c2noc(C3CN(Cc4ccc5c(c4)CCO5)C3)n2)nc1 read A: 5.693%; B: 3.093%; C: -26.87%.
COCCN1C[C@H]2[C@@H](C1)N(C(=O)COc1ccccc1)CC[C@H]2OC read A: -0.6174%; B: 2.732%; C: -22.55%.
CC(NC(=O)NCCCn1cccn1)c1ccccn1 (stereo not shown) read A: 9.973%; B: 8.333%; C: 1.236%.
Fc1ccccc1CN(CCCn1ccnc1)CC1CCOC1 (stereo not shown) read A: -0.09111%; B: 4.981%; C: -34.01%.
O=C(CCCNC(=O)C1CC1)Nc1cnn(-c2ccccc2Cl)c1 read A: -0.8221%; B: 0.3831%; C: 10.39%.
O=C(c1ccnnc1)N1C[C@@H]2CC[C@H](Oc3cccc(F)c3)[C@@H]2C1 read A: 0.2526%; B: -0.5405%; C: -27.3%.
CC(C)N1CCC(c2nccnc2Nc2cnccn2)CC1 read A: -3.283%; B: -0.7692%; C: 9.608%.
O=C(NCc1ccc(Br)c(F)c1)Nc1cn[nH]c1 read A: -0.07766%; B: 8.458%; C: 0.7221%.
Cc1cc(CN(C)C(=O)C2CC(=O)N(Cc3cccnc3)C2)on1 (stereo not shown) read A: 5.439%; B: -1.288%; C: -10.51%.
Cc1nn(C)c2c(N3CCN(C(=O)NC4CCCCC4)CC3)ncnc12 read A: -0.5481%; B: 0.5464%.
CCC(=O)N1CCCC(c2cc(Nc3ncccn3)nc(C)n2)C1 (stereo not shown) read A: 3.537%; B: 3.784%; C: -43.46%.
Cc1nc([C@@H]2C[C@@H]3CCN(C(=O)Cc4cccs4)C[C@H]3O2)no1 read A: 10.04%; B: 10.74%; C: -6.837%.
O=C(CC1CC1)N1CCC2(CC(=O)N(c3cccc(F)c3)C2)C1 (stereo not shown) read A: 2.632%; B: 3.261%; C: -26.91%.
CCc1nnc(CN2CCN(C(C)=O)CC2)o1 read A: 4.383%; B: 6.897%; C: -33.81%.
COc1ccc(-c2nnsc2C(=O)N2CCC(C(N)=O)CC2)cc1 read A: 2.103%; B: -2.062%; C: -6.68%.
O=C(c1cc2ccccc2s1)N1CCC(C(=O)O)(n2cccn2)CC1 read A: 3.007%; B: 4.124%; C: -7.516%.
CCN1CCN(C(=O)Cc2ccc(S(=O)(=O)C(F)F)cc2)CC1 read A: -3.23%; B: -2.222%; C: 0.4501%.
Cc1noc(C)c1CC(=O)N1CCc2sccc2C1 read A: 1.139%; B: 4.611%; C: 4.21%.
Cc1ccc(-c2nc(CNC(C)CCO)[nH]c2-c2ccccn2)cc1 (stereo not shown) read A: 2.08%; B: 6.186%; C: -20.16%.
Cc1ccccc1N1CCN(C(=O)c2cnn(C(C)C)c2)C(C)C1 (stereo not shown) read A: 14.8%; B: 1.02%; C: -16.08%.
COc1cccc(CN2C[C@@H](F)[C@@H](OCc3nc4cnccc4[nH]3)C2)c1 read A: 5.102%; B: 2.488%; C: 6.365%.
O=C([C@@H]1COC[C@H]2CN(c3ccncn3)C[C@H]21)N1CCCC1 read A: -0.203%; B: 0%; C: -5.873%.

The first 2 entries again:

| compound | A | B | C |
|---|---|---|---|
| `O=C(c1cccs1)N1CC[C@H]2[C@@H]1CCC(=O)N2c1cccnc1` | -0.4278 | 8.163 | 17.36 |
| `CCOc1cccc(C(C(=O)O)N(C)Cc2cc(C)no2)c1` (stereo not shown) | 7.12 | 2.679 | 26.5 |

Measurements from “University of Dundee, Small-Polar-MMV Screening Library” (2021), ChEMBL document CHEMBL3988442.